In patent EP0821003B1 (Aventis Pharma Ltd., priority 1995, dated 2003):
Some peptides are written in HELM: one residue between dots, names in brackets for other building blocks, links after the first $.

Assay: solid-phase peptide synthesis
Details: whole synthesis, 215 nm
With PEPTIDE1{A.A.L.T.F.G.K.G}$$$$V2.0 the “final HPLC purity” value was 98.1%. For PEPTIDE1{A.K.A.T.F.G.K.G}$$$$V2.0, the “final HPLC purity” value was 98.2%. For PEPTIDE1{A.K.L.A.F.G.K.G}$$$$V2.0, the “final HPLC purity” value was 97.5%. For PEPTIDE1{A.K.L.T.A.G.K.G}$$$$V2.0, the “final HPLC purity” value was 98.6%. For PEPTIDE1{A.K.L.T.F.A.K.G}$$$$V2.0, the “final HPLC purity” value was 98.2%. For PEPTIDE1{A.K.L.T.F.G.A.G}$$$$V2.0, the “final HPLC purity” value was 97.6%. In the case of PEPTIDE1{A.K.L.T.F.G.K.A}$$$$V2.0, the “final HPLC purity” value is reported as 97.5%. With PEPTIDE1{A.K.L.T.F.G.K.G.T}$$$$V2.0 the “final HPLC purity” value was 100%. In the case of PEPTIDE1{A.K.L.T.F.G.K.G}$$$$V2.0, the “final HPLC purity” value is reported as 97.9%. With PEPTIDE1{K.L.T.F.G.K.G}$$$$V2.0 the “final HPLC purity” value was 100%. For “PEPTIDE1{[ac].A.K.L.T.F.G.K.G.T}$$$$V2.0”, the “final HPLC purity” value was 98.8%. With “PEPTIDE1{[ac].[dA].[dK].[dL].[dT].[dF].G.[dK].G.[dT].[am]}$$$$V2.0” the “final HPLC purity” value was 98.4%. For “PEPTIDE1{[ac].[dA].[dK].[dL].[dT].[dF].G.[dK].G.[dT]}$$$$V2.0”, the “final HPLC purity” value was 98.5%. In the case of “PEPTIDE1{[dA].[dK].[dL].[dT].[dF].G.[dK].G.[dT]}$$$$V2.0”, the “final HPLC purity” value is reported as 99.6%.
